Experimental data as given in PubChem BioAssay AID1347076 (National Center for Advancing Translational Sciences (NCATS), 2019).
The whole screen tested about 400,000 compounds, of which about 13,000 (3.2%) were called active. The shares of active, inactive and inconclusive entries below differ from those in the screen. Calls follow the shape of the dose curve; as a rule, active = well fitted cell-killing curve with a large enough effect; inconclusive = small, poorly fitted or top-dose-only effect, or effect the other way; inactive = flat fitted curve, though single readings scatter. Potencies beside an inconclusive call are fits to weak or partial responses and may not hold up.
% is scaled to controls: 0 for no effect and ±100 for the full control effect; potency is read from the fitted curve at half-maximal effect.

Test: qHTS assay for MDR1-selective chemotherapeutics: Primary screen using the drug-selected MDR subline cells KB-V1; also: nearly all actives have a fitted effect of over 60% in size
Settings: KB-V1 MDR cells viability, CellTiter-Glo, 72 h; activity change, negative = cytotoxicity: at 46.1 µM (top of the series)
Outline: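 Readout: CellTiter-Glo luminescence, 10 min after addition. Cells: KB-V1 MDR subline, 72 h at 37 degrees C with compound. Analysis: corrected, normalized data fitted to concentration-effect curves.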
In the case of `CN(CC(=O)Nc1sccc1C#N)Cc1ccccc1`, the Potency is reported as inconclusive: 16.4 µM [cytotoxic, partial curve].
For `CCN(c1ccccc1)C(CNS(=O)(=O)c1ccccc1)c1ccccc1` (stereo not drawn), the Potency was inconclusive: 25.9 µM [cytotoxic, partial curve, poor fit].
In the case of `CCOc1ccc2oc(C(=O)OCC(=O)N(CC(C)C)c3c(N)n(Cc4ccccc4)c(=O)[nH]c3=O)c(C)c2c1`, the Potency is reported as inconclusive: 29.1 µM [cytotoxic, single point].
For `NCCCn1c(C(=O)c2cc(Cl)c(N)c(Cl)c2)c2ccc([N+](=O)[O-])cc2[n+]1[O-]`, the Potency was “inactive”.
In the case of `OC[C@@H]1CN(Cc2ccc3c(c2)OCO3)C[C@H](n2cnc3c(N4CCN(c5ccccc5)CC4)ncnc32)O1`, the Potency is reported as “inactive”.
In the case of `COc1ccc(-c2nnc(SC(C)C(=O)Nc3cccc(Cl)c3)o2)cc1` (stereo not drawn), the Potency is reported as “inactive”.
In the case of `COc1cc([N+](=O)[O-])cc(/C=N/NC(=O)c2ccc(C)nc2)c1O`, the Potency is reported as inconclusive: 29.1 µM [cytotoxic, single point].
For `Cc1ccc(OCC(=O)Nc2ccc(OCc3cc(=O)n4cccc(C)c4n3)cc2)cc1C`, the Potency was “inactive”.
With `Cc1nn(C(C)C(=O)NC2CCCCC2)c(=O)c2c1sc1ccccc12` (stereo not drawn) the Potency was “inactive”.
For `Cc1ccc(CNC(=O)C2CCCN(S(=O)(=O)c3ccc(-n4cnnn4)cc3)C2)cc1` (stereo not drawn), the Potency was “inactive”.
For `CO/N=C/C(=N\Nc1ccc(OC)cc1)C(=O)c1ccc(OC)cc1`, the Potency was active: 11.6 µM.
In the case of `COc1cc(NC(=O)C2COc3ccccc3O2)c(OC)cc1Cl` (stereo not drawn), the Potency is reported as inconclusive: 20.6 µM [cytotoxic, single point].
In the case of `CC(C)(C)NC(=O)C1CCCN(S(=O)(=O)c2cccc3cccnc23)C1` (stereo not drawn), the Potency is reported as inconclusive: 23.1 µM [cytotoxic, partial curve, poor fit].
For `CS(=O)(=O)N(CC(=O)Nc1ccc(Cl)c(Cl)c1)C1CCCCC1`, the Potency was inconclusive: 29.1 µM [cytotoxic, single point].
In the case of `COc1ccc(OC)c(C2NC(=O)NC(C)=C2C(=O)Nc2cc(C)cc(C)c2)c1` (stereo not drawn), the Potency is reported as inconclusive: 1.46 µM [rising, full curve, poor fit].
With `CCOC(=O)c1c(C)[nH]c(C(=O)OCc2ccccc2F)c1C` the Potency was inconclusive: 8.2 µM [cytotoxic, partial curve].
In the case of `NS(=O)(=O)c1ccc(CNC(=O)Cc2c(F)cccc2Cl)cc1`, the Potency is reported as inconclusive: 3.66 µM [rising, partial curve, poor fit].
For `Cc1ccc2sc(N(Cc3cccnc3)C(=O)CCOc3ccccc3)nc2c1C`, the Potency was “inactive”.
With `COc1ccccc1-c1cc(C(=O)N2CCCC2)no1` the Potency was inconclusive: 10.3 µM [cytotoxic, partial curve, poor fit].
For `Cc1c(C(=O)N(Cc2ccc(N(C)C)cc2)C2CCS(=O)(=O)C2)oc2ccccc12` (stereo not drawn), the Potency was inconclusive: 0.0326 µM [cytotoxic, full curve].
With `CC1Cc2ccccc2N1C(=O)C1CCCN(S(=O)(=O)c2cccc3cccnc23)C1` (stereo not drawn) the Potency was inconclusive: 29.1 µM [cytotoxic, single point].
In the case of `CCOC(=O)CCc1c(C)c(C#N)c2nc3ccccc3n2c1-n1cnc2ccccc21`, the Potency is reported as inconclusive: 8.2 µM [cytotoxic, partial curve, poor fit].
With `CCCCC(=O)Nc1cccc(-c2nc3ncccc3o2)c1C` the Potency was “inactive”.
For `O=C(NNC(=S)Nc1cccc(C(F)(F)F)c1)c1ccccc1Cl`, the Potency was inconclusive: 18.4 µM [cytotoxic, single point].
With `Clc1ccc(CNc2ccccc2NCc2ccc(Cl)nc2)cn1` the Potency was inconclusive: 7.31 µM [cytotoxic, partial curve].
With `Cc1cc(C)cc(C(=O)NCC(=O)OC(C)C(=O)N(C)c2ccccc2)c1` (stereo not drawn) the Potency was “inactive”.
For `COc1ccc(N2CCN(C(CNC(=O)C(=O)NCCC3=CCCCC3)c3ccco3)CC2)cc1` (stereo not drawn), the Potency was active: 2.59 µM.
With `C=CCn1c(-c2ccc(Cl)cc2)cnc1SC(C)C(N)=O` (stereo not drawn) the Potency was inconclusive: 29.1 µM [rising, partial curve, poor fit].
In the case of `CCOC(=O)C1(Cc2ccccc2)CCN(Cc2cc(=O)c3ccccc3[nH]2)CC1`, the activity change, negative = cytotoxicity is reported as inconclusive: -2.25%.
With `COc1ccccc1-c1nc(C#N)c(NCCCn2ccnc2)o1` the Potency was inconclusive: 2.59 µM [rising, partial curve, poor fit].
For `CCC(=O)N1c2ccccc2CC1C(=O)NCc1cccc(C)c1` (stereo not drawn), the Potency was “inactive”.
With `COc1ccccc1CC1(C)NC(=O)N(CC(=O)N2CCc3ccccc3C2)C1=O` (stereo not drawn) the Potency was inconclusive: 7.31 µM [cytotoxic, partial curve, poor fit].
In the case of `CCOP(=O)(OCC)c1nc(-c2ccccc2)oc1N1CCCCC1`, the Potency is reported as “inactive”.
With `COc1ccc(C(=O)COC(=O)C(CCCCN2C(=O)C3C4C=CC(C4)C3C2=O)N2C(=O)C3C4C=CC(C4)C3C2=O)cc1` (stereo not drawn) the Potency was inconclusive: 16.4 µM [cytotoxic, single point].
For `CCC1CSC(Nc2ccc(C(=O)/C=C/c3ccc(OC)c(OC)c3)cc2)=N1` (stereo not drawn), the Potency was active: 2.91 µM.
In the case of `CC(C)OC(=O)CN1C(=O)C(C)(C)Oc2ccc(C(=O)NC3CC3)cc21`, the Potency is reported as inconclusive: 14.6 µM [cytotoxic, partial curve, poor fit].
For `CCOc1ccc2nc(SCCNS(=O)(=O)c3ccccc3)sc2c1`, the Potency was inconclusive: 25.9 µM [cytotoxic, single point].
With `COc1ccc(C(=O)Nc2cc(C)c3c(=O)oc4ccccc4c3n2)cc1` the Potency was inconclusive: 18.4 µM [rising, single point].
For `CCOC(=O)C1=C(COC(=O)CCOc2ccc(C)cc2)NC(=O)NC1C` (stereo not drawn), the Potency was “inactive”.
In the case of `CCCCNC(=O)C(NC(=O)c1ccc(=O)[nH]c1)C(=O)c1ccccc1` (stereo not drawn), the Potency is reported as “inactive”.
In the case of `O=C(CCCC(=O)NNC(=O)Nc1ccccc1)NNC(=O)Nc1ccccc1`, the Potency is reported as “inactive”.
In the case of `COc1ccc(OC)c(C(=O)c2c(N)c(-c3nc(-c4ccc(C)c(C)c4)cs3)c3ccccn23)c1`, the Potency is reported as “inactive”.
With `Cc1noc(C)c1NC(=O)N1C[C@H](O)COC[C@H]2O[C@@H](CC(=O)NCC3CCCCC3)CC[C@@H]21` the Potency was “inactive”.
With `CN(C)c1ccc(N=Cc2nc(-c3ccccc3)oc2OC(=O)c2ccccc2)cc1` the Potency was “inactive”.
In the case of `O=C1NC(=Nc2ccccc2Cl)SC1(CO)CO`, the Potency is reported as inconclusive: 29.1 µM [rising, single point].
For `CC1CCc2c(nc3ncnn3c2N2CCN(c3ccccc3F)CC2)C1` (stereo not drawn), the Potency was inconclusive: 14.6 µM [cytotoxic, partial curve].
In the case of `O=C(Nc1cccc(Br)c1)c1ccccc1-c1ccccc1`, the Potency is reported as inconclusive: 18.4 µM [cytotoxic, single point].
In the case of `CCCc1cc(=O)oc2cc(C)cc(OCC(=O)O)c12`, the Potency is reported as “inactive”.
In the case of `CC(=O)C1=C(O)C2(C)c3c(O)c(C)c(O)c(C(C)=O)c3OC2CC1=O` (stereo not drawn), the Potency is reported as active: 16.4 µM.
For `COCCCN1C(=O)C(=O)/C(=C(/O)c2ccc(S(=O)(=O)N3CCCCC3)cc2)C1c1ccc(O)c(OC)c1` (stereo not drawn), the Potency was inconclusive: 20.6 µM [rising, single point].
In the case of `Cc1csc(NC(=O)c2ccco2)n1`, the Potency is reported as inconclusive: 20.6 µM [cytotoxic, single point].
With `Cc1ccc(-c2nnc(CCC(=O)NCc3csc(C)n3)o2)s1` the Potency was inconclusive: 8.2 µM [rising, partial curve, poor fit].
In the case of `O=C(NNC(=O)c1sc2ccccc2c1Cl)Nc1ccc(Cl)cc1`, the Potency is reported as inconclusive: 10.3 µM [rising, partial curve].
For `O=C(Nc1cc(C(F)(F)F)cc(C(F)(F)F)c1)[C@H]1O[C@@H](n2ccc(=O)[nH]c2=O)[C@H](O)[C@@H]1O`, the Potency was inconclusive: 32.6 µM [rising, partial curve, poor fit].
For `CCn1nc(NC(C)=O)c2cc3ccc(C)cc3nc21`, the Potency was inconclusive: 18.4 µM [cytotoxic, partial curve].
With `CCN(CC)S(=O)(=O)c1ccc(N(C)Cc2ccc(C(F)(F)F)cc2)nc1` the Potency was inconclusive: 25.9 µM [cytotoxic, single point].
With `CC(C)[C@H](NC(=O)OCc1ccccc1)C(=O)OCC(=O)N1C(C)CCCC1C` (stereo partly drawn) the Potency was “inactive”.
With `COc1cc(NC(=O)CCCNC(=O)c2ccc(Cl)cc2)cc(OC)c1OC` the Potency was “inactive”.
For `COc1ccc(C2=NO[C@@H]3C(=O)N(Cc4ccccc4)C(=O)[C@H]23)c(OC)c1`, the Potency was inconclusive: 29.1 µM [rising, single point].
For `COc1ccc(-c2noc(-c3ccc(N4CCN(c5ccc(OC)cc5)CC4)c([N+](=O)[O-])c3)n2)cc1`, the Potency was “inactive”.
For `COc1cc(NC(=O)Cc2nn(C)c(=O)c3ccccc23)cc(OC)c1OC`, the Potency was active: 14.6 µM.
With `Cc1ccc(C)c(N2CCN(S(=O)(=O)c3ccc4c(c3)C(C)(C)C(=O)N4C)CC2)c1` the Potency was “inactive”.
In the case of `COc1cc(C)ccc1OCCCn1c(-c2ccc(Cl)cc2)nc2ccccc2c1=O`, the Potency is reported as inconclusive: 18.4 µM [rising, partial curve, poor fit].
With `CC1(C(=O)NCc2ccccc2)CN(S(C)(=O)=O)CC(=O)N1CC(F)(F)F` (stereo not drawn) the Potency was “inactive”.
In the case of `CC(=O)c1ccc(NC(=O)C(C)OC(=O)/C=C/c2ccco2)cc1` (stereo not drawn), the Potency is reported as inconclusive: 18.4 µM [cytotoxic, single point].
With `O=C(CN(c1ccc(F)cc1)S(=O)(=O)c1ccc2c(c1)OCCO2)NCC1CCCO1` (stereo not drawn) the Potency was inconclusive: 16.4 µM [cytotoxic, single point].
With `O=C(CN(C(=O)c1csnn1)c1ccc(F)c(Cl)c1)NCc1ccccc1` the Potency was inconclusive: 29.1 µM [cytotoxic, single point].
In the case of `CC(=O)NC(=S)Nc1cccc2c(C)cc(C)nc12`, the Potency is reported as inconclusive: 23.1 µM [cytotoxic, partial curve, poor fit].
